Results are given in words; binding and its absence hold for the method and conditions named. In cells and extracts the contact can be indirect. Here binding means that the protein was enriched with, or labelled near, the bait; the list need not be complete.
Molecular target: USP14 (human (endogenous in LoVo and SW48)) (UniProt P54578)
Assay: affinity purification with mass spectrometry; immunoprecipitation with USP14-specific antibodies (IgG as control), silver staining and mass spectrometry; cells not given

By UniProt entry, the sequences of proteins in these tests, tags left out.
UniProt P54578: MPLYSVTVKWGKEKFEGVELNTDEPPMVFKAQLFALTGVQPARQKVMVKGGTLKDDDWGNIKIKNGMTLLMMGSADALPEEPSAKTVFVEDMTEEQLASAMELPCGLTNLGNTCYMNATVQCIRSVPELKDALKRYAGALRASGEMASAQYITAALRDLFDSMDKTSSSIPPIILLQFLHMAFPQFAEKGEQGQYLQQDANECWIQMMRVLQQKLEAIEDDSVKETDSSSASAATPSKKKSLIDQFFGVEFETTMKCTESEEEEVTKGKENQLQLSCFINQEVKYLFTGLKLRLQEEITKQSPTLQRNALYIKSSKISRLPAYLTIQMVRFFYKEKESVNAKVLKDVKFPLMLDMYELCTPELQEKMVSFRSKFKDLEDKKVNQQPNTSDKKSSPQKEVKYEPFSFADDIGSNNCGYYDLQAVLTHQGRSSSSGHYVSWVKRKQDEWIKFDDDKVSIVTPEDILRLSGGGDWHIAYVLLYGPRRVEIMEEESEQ

binding: binds
B1: BAG4 (protein, UniProt O95429 1-457)
chain: MSALRRSGYGPSDGPSYGRYYGPGGGDVPVHPPPPLYPLRPEPPQPPISWRVRGGGPAETTWLGEGGGGDGYYPSGGAWPEPGRAGGSHQEQPPYPSYNSNYWNSTARSRAPYPSTYPVRPELQGQSLNSYTNGAYGPTYPPGPGANTASYSGAYYAPGYTQTSYSTEVPSTYRSSGNSPTPVSRWIYPQQDCQTEAPPLRGQVPGYPPSQNPGMTLPHYPYGDGNRSVPQSGPTVRPQEDAWASPGAYGMGGRYPWPSSAPSAPPGNLYMTESTSPWPSSGSPQSPPSPPVQQPKDSSYPYSQSDQSMNRHNFPCSVHQYESSGTVNNDDSDLLDSQVQYSAEPQLYGNATSDHPNNQDQSSSLPEECVPSDESTPPSIKKIIHVLEKVQYLEQEVEEFVGKKTDKAYWLLEEMLTKELLELDSVETGGQDSVRQARKEAVCKIQAILEKLEKKGL
